Test [1] deals with T1, GC-4 (human).
T1 sequence: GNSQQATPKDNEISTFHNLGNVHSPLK
Put plainly: Western blot of GST fusion proteins. On the technique in general: Immunoblotting shows a protein as a band on a membrane.

Sequences of proteins named here, by UniProt entry; tags and fusion partners are left off. A change or cut given only in a name is not applied to a line headed by its entry.
UniProt P51654: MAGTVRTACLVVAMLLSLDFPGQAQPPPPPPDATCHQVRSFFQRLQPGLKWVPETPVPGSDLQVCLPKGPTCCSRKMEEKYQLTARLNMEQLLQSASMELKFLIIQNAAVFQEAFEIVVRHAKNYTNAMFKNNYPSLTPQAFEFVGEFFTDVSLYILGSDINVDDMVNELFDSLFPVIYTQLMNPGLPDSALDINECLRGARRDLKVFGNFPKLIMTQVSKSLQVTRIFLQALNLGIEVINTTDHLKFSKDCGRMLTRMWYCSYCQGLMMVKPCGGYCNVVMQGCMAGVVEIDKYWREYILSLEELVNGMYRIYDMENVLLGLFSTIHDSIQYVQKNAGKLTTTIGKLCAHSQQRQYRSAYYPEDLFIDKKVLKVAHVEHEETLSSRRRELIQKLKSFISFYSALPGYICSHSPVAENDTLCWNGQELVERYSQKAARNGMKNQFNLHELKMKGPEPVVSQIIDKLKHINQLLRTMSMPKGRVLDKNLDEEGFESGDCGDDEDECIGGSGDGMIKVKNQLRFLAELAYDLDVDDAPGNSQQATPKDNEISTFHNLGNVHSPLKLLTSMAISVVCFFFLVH

The target in test [2] is 分泌型GPC3 (human) (UniProt P51654). In words: immunoprecipitation from HepG2 culture supernatant.
Test [3] shares this target. Put plainly: sandwich ELISA on HepG2 culture supernatant, pairs of anti-GPC3 antibodies. For orientation: An ELISA detects its analyte on a solid surface through an enzyme-linked reagent.
Test [4] shares this target. Put plainly: sandwich ELISA on HepG2 culture supernatant (Fig. 4 legend).
For test [5] the target is unchanged. In words: immunoprecipitation from HepG2 culture supernatant (Fig. 5 legend).

Results are given in words; binding and its absence hold for the method and conditions named. Some results given as binding are weak or reduced against the parent protein; the word gives no strength.

B1: GC202 (antibody, V domains shown)
VH: QVTLKESGPGILQPSQTLSLTCSFSGFSLSTYGMGVGWIRQPSGKGLEWLANIWWHDDKYYNSALKSRLTISKDISNNQVFLKISSVDTADTATYYCAQIAPRYNKYEGFFAFWGQGTLVTVSA
VL: DVLMTQTPLSLPVSLGDQASISCRSSQSIVHSNGNTYLEWYLQKPGQSPKLLIYKVSNRFSGVPDRFSGSGSGTDFTLKISRVEAEDLGVYYCFQGSHVPWTFGGGTKLEIK
Take B1: the binding result in test [1] is listed as “binds”.

B2: M5B9 (antibody, V domains shown)
VH: EVQLQQSGTVLARPGASVKMSCKASGYTFTGYWMHWVKQRPGQGLEWIGAIYPGNSDTNYNQKFKGKAKLTAVTSASTAYMELSSLTNEDAAVYHCTRSGDLTGGLAYWGQGTLVTVSA
VL: DIVMTQAAFSNPVTLGTSASISCRSSKSLLHSNGITYLYWFLQKPGQSPQLLIYQMSNLASGVPDRFSSSGSGTDFTLRISRVEAEDVGVYYCAQNLELPYTFGSGTKLEIK
For B2, in test [2], the binding entry is on record as “binds”.

B3: M6B1 (antibody, V domains shown)
VH: EVQLVESGGDLVKPGGSLKLSCAASGFTFSSYAMSWVRQTPEKRLEWVAAINSNGGTTYYPDTMKDRFTISRDNAKNTLYLQMSSLRSEDSALYYCTRHNGGYENYGWFAYWGQGTLVTVSA
VL: DIQMTQSPSSLSASLGGKVTITCKASQDINKNIIWYQHKPGKGPRLLIWYTSTLQPGIPSRFSGSGSGRDYSFSISNLEPEDIATYYCLQYDNLPRTFGGGTKLEIK
On to B3, for which the binding result in test [2], in test [3] and in test [4] was “binds” in each case.

B4: M10D2 (antibody, V domains shown)
VH: QVQLQQPGAELVKPGASVKLSCKASGYTFTSYWMHWVKQRPGQGLEWIGEIDPSDSYTYYNQKFRGKATLTVDKSSNTAYMQLSSLTSEDSAVYYCSRSNLGDGHYRFPAFPYWGQGTLVTVSA
VL: DIVLTQSPATLSVTPGDRVSLSCRASHSISNFLHWYPQKSHESPRLLIKYASQSISGIPSRFSGNGSGTDFTLSINSVETEDFGMYFCQQSNIWSLTFGAGTKLELK
For the molecule B4, the binding result in test [2] and in test [5] was “binds” throughout.

B5: L9G11 (antibody, V domains shown)
VH: QVQLQQPGAELVKPGASVKLSCKASGYTFTSYWMHWVKQRPGQGLEWIGTIDPSDSETHYNLQFKDTATLTVDKSSSTAYMQLSSLTSEDSAVYYCIRGAFYSSYSYWAWFAYWGQGTLVTVSA
VL: DIVLTQSPTSLAVSLGQSVTISCRASESVEYYGTSLMQWYQQKPGQPPKLLIYGASNVESGVPARFSGSGSGTDFSLNIHPVEEDDIAMYFCQQSRKVPYTFGSGTKLEIK
As to B5, the binding entry in test [2] is listed as “binds”.

The record behind these values is JP2007300927A.
